Out of some 300,000 compounds screened, about 5,400 (1.8%) were called active. The inconclusive results got no clear call from the source; some entries with a clear call stand among them for comparison. The call rests on the fitted dose curve; tested in HEK293 cells. Where the call is inconclusive, the potency comes from a doubtful curve fit.
Test: qHTS for inhibitors of binding or entry into cells for Marburg Virus
Conditions: Marburg virus pseudotyped entry inhibition, cell reporter; activity change, negative = inhibition: at 37.8 µM (top of the series) unless noted
On the % scale 0 is the no-effect control and ±100 the full control effect; potency means the concentration at half of the fitted maximal effect.

Structure (SMILES)	Potency	activity change, negative = inhibition
COc1ccc(CCCc2nnc(SCC(=O)Nc3nccs3)n2C)cc1C	inactive	
O=C(NCc1ccc2c(c1)OCO2)c1nc(S(=O)(=O)Cc2ccccc2)ncc1Cl	inconclusive: 35.5 µM [inhibitor, single point]	
CCN(CC)c1ccc(/C=N/Nc2nc(C)cc(C)n2)c(O)c1	active: 6.51 µM	
Cc1oc(-c2cccc(Cl)c2)nc1CN1CCC(C(=O)NCCCN2CCN(c3cccc(Cl)c3)CC2)CC1	inconclusive: 0.708 µM [inhibitor, single point]	
CCOc1cc(NC(=S)Nc2ccccc2)c(OCC)cc1NC(=O)c1ccc(OC)cc1	inconclusive: 0.73 µM [inhibitor, full curve, poor fit]	
O=C1N/C(=C/c2ccc(N3CCOCC3)o2)C(=O)N1c1cccc(Cl)c1	inconclusive: 29.1 µM [inhibitor, single point]	
COc1ccc(/C=C/C(=O)N(C)CC(=O)Nc2cccc(F)c2)cc1S(=O)(=O)N1CCCCC1	inconclusive: 8.91 µM [inhibitor, partial curve, poor fit]	
Cc1ccc(NC(=O)c2ccc(Cl)cc2[N+](=O)[O-])nc1	inconclusive: 6.31 µM [inhibitor, single point]	
Cc1ccc2c(C)c(C)c(=O)n(C)c2c1	inactive	
CCNc1nc(NC(C)C)nc(N(C#N)CCOc2ccccc2)n1	inactive	
CCOc1ccc(NC2c3ccccc3C(=O)N2Cc2ccco2)cc1 (stereo not drawn)	inconclusive: 16.4 µM [inhibitor, single point]	
O=C(Nc1ccncc1)c1ccc(Cl)c(S(=O)(=O)N2CCCCC2)c1	inconclusive: 20 µM [inhibitor, single point]	
CCNC(=O)NC(=O)C(C)OC(=O)CCCSc1nc2ccccc2s1 (stereo not drawn)	inconclusive: 15.8 µM [inhibitor, single point]	
O=C(OCCN1CCCCC1)c1cc2ccccc2o1	inconclusive: 0.411 µM [activator, partial curve, poor fit]	
CC(C(=O)Nc1ccc(S(=O)(=O)Nc2ncccn2)cc1)N1C(=O)c2ccccc2S1(=O)=O (stereo not drawn)	inconclusive: 3.16 µM [inhibitor, single point]	
CCOC(=O)Cn1c(=O)oc2cc(S(=O)(=O)N(CCN(C)C)Cc3ccccc3)ccc21	inconclusive: 23.1 µM [inhibitor, single point]	
Cc1cccc(NC(=O)C2CCCN(S(=O)(=O)c3cccc4nonc34)C2)c1 (stereo not drawn)	inconclusive: 0.562 µM [inhibitor, full curve, poor fit]	
CCOC(=O)CSc1nc(-c2ccncc2)ccc1C#N	inconclusive: 2 µM [activator, partial curve, poor fit]	
CC(C)(C)c1ccc(/C=N/NC(=O)c2ccccn2)cc1	active: 3.16 µM	
O=C(C1CCCCC1)N1C[C@@H](O)[C@@H](n2cc(-c3ccc(F)cc3)nn2)C[C@@H]1c1ccccc1	inconclusive: 12.5 µM [inhibitor, partial curve, poor fit]	
Cn1c(SCC(=O)c2ccc3c(c2)OCCO3)nnc1C1CC1	inactive	
CN(C1=C(N2CCCCC2)C(=O)c2ccccc2C1=O)c1ccccc1	inconclusive: 20.6 µM [inhibitor, single point]	
NC(=O)c1c(NC(=O)c2ccc([N+](=O)[O-])o2)sc2c1CCCC2	inactive	

Structure (SMILES)	Potency	activity change, negative = inhibition
Cc1ccc(/C=N/Nc2cccc3cccnc23)c(O)c1	inconclusive: 29.1 µM [inhibitor, single point]	
Cc1ccccc1OCCCCn1cnc2ccccc21	inactive	
CCC(NC(=O)c1cc(COc2ccc(C)nc2)on1)c1ccc(C)cc1 (stereo not drawn)	inconclusive: 35.5 µM [inhibitor, single point]	
COC(=O)c1c(NC(=O)c2c(-c3ccccc3Cl)noc2C)sc2c1CCC2	inconclusive: 0.251 µM [inhibitor, full curve, poor fit]	
CCOc1cc(/C=N/NC(=O)c2cc(-c3cccc(OC)c3)nc3ccccc23)ccc1O	inconclusive: 7.08 µM [inhibitor, full curve, poor fit]	
Cc1cc2c(SCC(=O)Nc3cccc(O)c3)ncnc2s1	inactive	
CC(C)N1C(=O)S/C(=C/c2ccc3c(c2)n(C)c(=O)n3C)C1=O	inconclusive: 11.6 µM [inhibitor, partial curve]	
CCCCNC(=O)CO/N=C(\C)c1cc2ccccc2o1	inactive	
COc1ccccc1C1Nc2cccc3cccc(c23)N1	inactive	
O=C(NC1CCCCC1)C(c1ccncc1)N(Cc1ccc2c(c1)OCO2)C(=O)C(F)(F)F (stereo not drawn)	inconclusive: 11.2 µM [inhibitor, partial curve, poor fit]	
CCCCCCn1nc(C(=O)Nc2nc3c(s2)CCCC3)c2ccccc2c1=O	inconclusive: 20 µM [inhibitor, partial curve, poor fit]	
Cc1ccc(CN2CCSc3ccc(C(=O)Nc4ccc(F)cc4F)cc32)cc1	inconclusive: 35.5 µM [inhibitor, single point]	
Cc1cccc(Nc2nnc(SC3CCOC3=O)s2)c1C (stereo not drawn)	inconclusive: 0.562 µM [inhibitor, full curve, poor fit]	
N#Cc1ccc(Oc2cc(C(F)(F)F)nc(-c3ccccn3)n2)cc1	inconclusive: 29.1 µM [activator, single point]	
COc1ccc(OC)c(-c2csc(NC(=O)C3=NN(c4ccccc4)C(=O)CC3)n2)c1	inconclusive: 7.08 µM [inhibitor, partial curve]	
COc1cc(OC)cc(C(=O)Nc2ccccc2C(=O)NC2CC2)c1	inconclusive: 11.2 µM [inhibitor, partial curve, poor fit]	
CC(=O)N(/N=C1\Sc2ccccc2C1=O)c1ccccc1C	inconclusive: 35.5 µM [inhibitor, single point]	
CCOc1ccccc1CNCc1ccc(F)cc1	inconclusive: 14.1 µM [inhibitor, single point]	
CCOc1cc(C(=S)N2CCOCC2)ccc1OS(=O)(=O)c1ccc(NC(C)=O)cc1	inactive	
O=C(CN1CC(c2ccccc2)CC1=O)N/N=C/c1cc(Br)ccc1O (stereo not drawn)	inconclusive: 11.2 µM [inhibitor, partial curve, poor fit]	
COc1ccc(Br)cc1CNC(=O)C(C)n1nc(C)n2c(cc3occc32)c1=O (stereo not drawn)	inactive	
CCC(C(=O)N1CCN(c2cc(Cl)ccc2C)CC1)n1nc(C)n2c(cc3occc32)c1=O (stereo not drawn)	inconclusive: 20 µM [inhibitor, single point]	
O=C1C(Cc2ccccc2)C(c2ccccc2)N1c1ccccc1 (stereo not drawn)	inconclusive: 35.5 µM [inhibitor, single point]	

Structure (SMILES)	Potency	activity change, negative = inhibition
Cc1ccc(CN2CC(C(=O)N3CCN(S(=O)(=O)c4cc(C)ccc4C)CC3)CC2=O)cc1 (stereo not drawn)	inconclusive: 8.91 µM [inhibitor, partial curve, poor fit]	
Clc1ccc(CSc2ccc(-c3ccco3)nn2)cc1	inactive	
O=C(N/N=C/C=C/c1ccccc1)C(O)c1ccccc1 (stereo not drawn)	inactive	
COc1ccc(CNc2nc(-c3ccccc3)nn2C(=O)c2ccc([N+](=O)[O-])cc2)cc1	inconclusive: 1.26 µM [activator, partial curve]	
CCc1ccc2nc(N3CCC(C(=O)O)CC3)sc2c1		inconclusive: 4.63% [activator] [at 46.1 µM]
O=C(Nc1nc(-c2ccc(S(=O)(=O)N3CCOCC3)cc2)cs1)c1ccccc1	active: 3.98 µM	
COc1cc(CNCc2c(C(=O)O)c(C)n(Cc3cccc(Cl)c3)c2C)cc(OC)c1OC	inactive	
O=C(c1ccc(Oc2ccc([N+](=O)[O-])cc2)cc1)N1CCCCCC1	active: 5.62 µM	
O=C(NCC(c1ccco1)N1CCN(c2ccccc2F)CC1)c1cccs1 (stereo not drawn)	inconclusive: 35.5 µM [inhibitor, partial curve, poor fit]	
OC(CN1CCOCC1)(c1ccccc1)c1ccccn1 (stereo not drawn)	inconclusive: 0.112 µM [activator, partial curve, poor fit]	
CN(C)CCCO[C@H]1C([C@H](O)CO)O[C@@H]2OC(C)(C)O[C@@H]21 (stereo partly drawn)	inconclusive: 0.251 µM [inhibitor, full curve]	
C#CCOCCOCCOCCNc1nc(N2CCN(C(=O)Cn3cc(CC(C)O)nn3)CC2)nc(N2CCN(C(=O)[C@H](C)n3cc(CCCN=C(N)N)nn3)CC2)n1 (stereo partly drawn)	inactive	
O=c1cc(CSc2ccccn2)c2ccccc2[nH]1	inactive	
Cc1cccc(NC(=O)Cn2c(=O)oc3cc(S(=O)(=O)NCc4ccccc4)ccc32)c1	inconclusive: 20 µM [inhibitor, single point]	
COc1ccc(CCNC(=O)Cn2ncc3c(C)n(Cc4ccccc4F)c(C)c3c2=O)cc1OC	inconclusive: 10 µM [inhibitor, partial curve, poor fit]	
Cc1ccc(C)c(-c2csc(-c3c(N)c(C(=O)c4ccc5c(c4)OCO5)n4ccccc34)n2)c1	inconclusive: 35.5 µM [inhibitor, single point]	
Cc1cccc(C(=O)NNC(=O)c2ccccc2C)c1	inconclusive: 0.58 µM [activator, full curve, poor fit]	
COc1ccc(C(=S)N2CCC(C(N)=O)CC2)cc1Br	inactive	
Cc1c(C(N)=O)nnn1-c1ccc(Br)cc1	inactive	
CC(C)(C)NC(=O)CSc1nc(-c2ccc(F)cc2)cs1	inconclusive: 22.4 µM [inhibitor, single point]	
COc1ccc(CCNC(=O)c2coc3ccccc3c2=O)cc1OC	inactive	
Nc1ccc2c(c1)C(=O)N(c1cccc3ccccc13)C2=O	inactive	

From PubChem BioAssay AID540276 (National Center for Advancing Translational Sciences (NCATS), 2011)
